From publication PMC4695059 come the findings set out here.

Amino acid sequences for entries named in this document (tags omitted).
UniProt Q8IUF8: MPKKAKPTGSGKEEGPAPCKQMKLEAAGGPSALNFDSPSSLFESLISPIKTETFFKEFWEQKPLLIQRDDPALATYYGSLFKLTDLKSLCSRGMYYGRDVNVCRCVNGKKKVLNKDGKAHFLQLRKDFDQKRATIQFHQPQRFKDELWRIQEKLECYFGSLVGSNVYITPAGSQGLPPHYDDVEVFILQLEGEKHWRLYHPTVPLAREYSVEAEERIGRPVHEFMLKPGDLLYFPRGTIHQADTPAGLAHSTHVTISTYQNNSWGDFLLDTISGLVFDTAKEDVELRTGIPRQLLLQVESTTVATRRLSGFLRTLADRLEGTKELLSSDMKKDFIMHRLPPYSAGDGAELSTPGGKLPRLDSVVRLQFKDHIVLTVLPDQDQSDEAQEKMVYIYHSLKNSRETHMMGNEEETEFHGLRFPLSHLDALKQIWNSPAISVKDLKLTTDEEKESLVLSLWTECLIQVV
UniProt Q5UIP0: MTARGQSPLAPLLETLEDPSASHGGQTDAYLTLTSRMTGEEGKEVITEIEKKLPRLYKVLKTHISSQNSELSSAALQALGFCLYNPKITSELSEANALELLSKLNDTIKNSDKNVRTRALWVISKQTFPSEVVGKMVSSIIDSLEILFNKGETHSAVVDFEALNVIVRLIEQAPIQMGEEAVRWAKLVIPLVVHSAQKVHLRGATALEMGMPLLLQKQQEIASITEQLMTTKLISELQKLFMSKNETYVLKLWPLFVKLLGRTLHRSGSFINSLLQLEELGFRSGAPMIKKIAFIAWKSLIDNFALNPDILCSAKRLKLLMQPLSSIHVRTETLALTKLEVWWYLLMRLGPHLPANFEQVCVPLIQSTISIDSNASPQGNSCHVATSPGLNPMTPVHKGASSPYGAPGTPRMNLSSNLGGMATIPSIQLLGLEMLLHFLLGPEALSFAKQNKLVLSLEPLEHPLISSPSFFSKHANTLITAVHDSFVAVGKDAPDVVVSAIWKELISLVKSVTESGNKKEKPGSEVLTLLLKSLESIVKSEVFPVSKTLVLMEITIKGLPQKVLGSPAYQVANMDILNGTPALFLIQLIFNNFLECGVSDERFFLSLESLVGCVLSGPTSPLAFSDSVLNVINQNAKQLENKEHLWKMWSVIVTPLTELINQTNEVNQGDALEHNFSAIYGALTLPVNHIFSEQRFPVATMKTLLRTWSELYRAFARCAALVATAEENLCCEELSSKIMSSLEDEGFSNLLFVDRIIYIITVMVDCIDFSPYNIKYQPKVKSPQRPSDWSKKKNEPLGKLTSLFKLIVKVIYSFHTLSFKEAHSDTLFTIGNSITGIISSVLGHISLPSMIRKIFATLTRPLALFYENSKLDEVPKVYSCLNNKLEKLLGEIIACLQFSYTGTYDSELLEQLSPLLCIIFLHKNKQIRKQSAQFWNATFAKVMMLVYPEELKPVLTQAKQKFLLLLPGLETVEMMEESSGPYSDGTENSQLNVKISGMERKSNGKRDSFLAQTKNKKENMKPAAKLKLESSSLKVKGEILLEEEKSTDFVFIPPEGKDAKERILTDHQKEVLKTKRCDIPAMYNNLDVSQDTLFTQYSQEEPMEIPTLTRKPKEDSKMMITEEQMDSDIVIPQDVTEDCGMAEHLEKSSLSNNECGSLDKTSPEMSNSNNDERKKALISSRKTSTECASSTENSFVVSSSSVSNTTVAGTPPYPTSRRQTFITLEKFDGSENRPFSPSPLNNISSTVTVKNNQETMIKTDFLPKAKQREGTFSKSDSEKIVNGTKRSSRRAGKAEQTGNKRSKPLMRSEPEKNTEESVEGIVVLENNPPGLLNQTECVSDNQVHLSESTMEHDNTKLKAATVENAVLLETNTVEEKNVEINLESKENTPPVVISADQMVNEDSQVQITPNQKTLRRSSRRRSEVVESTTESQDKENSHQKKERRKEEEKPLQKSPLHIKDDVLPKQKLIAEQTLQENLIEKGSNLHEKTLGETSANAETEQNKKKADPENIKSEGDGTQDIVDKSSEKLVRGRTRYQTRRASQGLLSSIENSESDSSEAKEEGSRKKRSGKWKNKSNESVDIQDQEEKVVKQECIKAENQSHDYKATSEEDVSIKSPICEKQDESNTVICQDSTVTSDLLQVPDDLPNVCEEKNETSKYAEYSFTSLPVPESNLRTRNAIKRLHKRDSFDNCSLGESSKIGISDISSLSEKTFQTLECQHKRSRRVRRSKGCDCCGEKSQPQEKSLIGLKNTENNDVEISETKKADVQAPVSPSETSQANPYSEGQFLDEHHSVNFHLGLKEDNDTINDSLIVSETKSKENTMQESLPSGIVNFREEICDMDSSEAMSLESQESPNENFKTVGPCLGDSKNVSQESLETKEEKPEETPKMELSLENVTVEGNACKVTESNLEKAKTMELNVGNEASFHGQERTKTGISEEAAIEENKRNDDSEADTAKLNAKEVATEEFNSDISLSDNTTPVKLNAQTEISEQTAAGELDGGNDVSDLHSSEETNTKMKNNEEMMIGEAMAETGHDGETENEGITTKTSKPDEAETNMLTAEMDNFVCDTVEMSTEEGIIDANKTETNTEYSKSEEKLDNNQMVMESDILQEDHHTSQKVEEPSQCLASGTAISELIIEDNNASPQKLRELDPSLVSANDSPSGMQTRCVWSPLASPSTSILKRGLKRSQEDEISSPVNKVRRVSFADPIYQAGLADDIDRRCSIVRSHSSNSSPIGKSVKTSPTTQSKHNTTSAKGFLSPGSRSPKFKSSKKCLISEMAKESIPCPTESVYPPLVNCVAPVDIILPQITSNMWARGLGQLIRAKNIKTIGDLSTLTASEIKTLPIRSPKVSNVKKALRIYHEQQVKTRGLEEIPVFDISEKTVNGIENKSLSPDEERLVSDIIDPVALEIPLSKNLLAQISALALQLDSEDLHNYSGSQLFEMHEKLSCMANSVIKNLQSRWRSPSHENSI
UniProt Q9NZN5: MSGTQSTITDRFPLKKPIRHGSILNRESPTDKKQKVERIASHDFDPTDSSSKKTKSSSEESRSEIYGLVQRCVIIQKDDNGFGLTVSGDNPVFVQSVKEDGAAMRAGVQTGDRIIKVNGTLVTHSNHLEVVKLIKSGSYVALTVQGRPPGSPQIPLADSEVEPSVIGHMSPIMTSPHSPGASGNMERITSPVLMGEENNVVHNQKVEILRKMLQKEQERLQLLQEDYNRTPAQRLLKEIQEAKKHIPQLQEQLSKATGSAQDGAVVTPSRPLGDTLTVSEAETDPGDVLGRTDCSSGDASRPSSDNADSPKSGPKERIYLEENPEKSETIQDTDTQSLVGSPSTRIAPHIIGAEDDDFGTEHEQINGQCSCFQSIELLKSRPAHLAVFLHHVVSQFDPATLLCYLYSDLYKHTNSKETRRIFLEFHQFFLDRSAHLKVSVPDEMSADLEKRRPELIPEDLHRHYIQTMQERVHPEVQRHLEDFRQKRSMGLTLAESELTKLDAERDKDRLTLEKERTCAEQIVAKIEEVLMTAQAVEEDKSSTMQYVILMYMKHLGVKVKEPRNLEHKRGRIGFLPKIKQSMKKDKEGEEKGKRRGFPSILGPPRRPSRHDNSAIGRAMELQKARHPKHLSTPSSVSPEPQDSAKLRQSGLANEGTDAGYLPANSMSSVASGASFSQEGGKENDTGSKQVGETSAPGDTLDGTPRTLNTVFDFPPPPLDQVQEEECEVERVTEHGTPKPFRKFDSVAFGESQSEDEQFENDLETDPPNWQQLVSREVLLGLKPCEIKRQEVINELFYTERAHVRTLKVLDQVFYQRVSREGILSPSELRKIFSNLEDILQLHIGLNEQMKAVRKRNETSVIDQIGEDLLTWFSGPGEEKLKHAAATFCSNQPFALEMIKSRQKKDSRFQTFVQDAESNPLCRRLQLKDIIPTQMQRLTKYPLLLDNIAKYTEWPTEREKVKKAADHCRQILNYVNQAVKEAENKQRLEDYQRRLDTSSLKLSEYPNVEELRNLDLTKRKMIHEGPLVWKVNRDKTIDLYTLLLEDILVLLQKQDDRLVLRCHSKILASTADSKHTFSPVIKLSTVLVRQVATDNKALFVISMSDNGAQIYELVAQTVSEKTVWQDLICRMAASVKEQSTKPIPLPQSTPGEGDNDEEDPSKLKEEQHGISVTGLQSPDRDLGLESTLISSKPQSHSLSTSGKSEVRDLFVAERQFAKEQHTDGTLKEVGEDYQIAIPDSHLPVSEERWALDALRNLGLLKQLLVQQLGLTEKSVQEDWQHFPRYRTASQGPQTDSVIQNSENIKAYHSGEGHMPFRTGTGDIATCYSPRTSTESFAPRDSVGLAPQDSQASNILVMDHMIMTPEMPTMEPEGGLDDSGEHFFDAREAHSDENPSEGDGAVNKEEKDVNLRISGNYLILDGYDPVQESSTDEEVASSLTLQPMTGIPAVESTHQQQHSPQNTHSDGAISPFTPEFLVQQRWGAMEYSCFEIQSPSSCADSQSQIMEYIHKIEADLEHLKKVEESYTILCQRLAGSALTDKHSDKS
UniProt O95251: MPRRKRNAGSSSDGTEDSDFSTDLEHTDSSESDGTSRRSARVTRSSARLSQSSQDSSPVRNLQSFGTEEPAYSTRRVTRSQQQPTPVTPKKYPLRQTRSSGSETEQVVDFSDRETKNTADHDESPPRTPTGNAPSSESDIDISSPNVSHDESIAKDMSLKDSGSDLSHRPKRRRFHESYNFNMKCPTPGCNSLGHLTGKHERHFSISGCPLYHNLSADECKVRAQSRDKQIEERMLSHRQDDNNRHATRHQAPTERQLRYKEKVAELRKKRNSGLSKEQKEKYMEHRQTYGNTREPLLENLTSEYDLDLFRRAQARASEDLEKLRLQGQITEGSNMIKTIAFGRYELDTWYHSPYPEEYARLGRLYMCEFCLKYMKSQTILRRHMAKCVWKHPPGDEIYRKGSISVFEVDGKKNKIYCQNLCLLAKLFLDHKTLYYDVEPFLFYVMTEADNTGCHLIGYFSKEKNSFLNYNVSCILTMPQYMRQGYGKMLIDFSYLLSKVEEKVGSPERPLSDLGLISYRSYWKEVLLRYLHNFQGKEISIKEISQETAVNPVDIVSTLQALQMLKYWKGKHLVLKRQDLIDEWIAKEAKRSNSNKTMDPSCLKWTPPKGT
UniProt Q9H7E2: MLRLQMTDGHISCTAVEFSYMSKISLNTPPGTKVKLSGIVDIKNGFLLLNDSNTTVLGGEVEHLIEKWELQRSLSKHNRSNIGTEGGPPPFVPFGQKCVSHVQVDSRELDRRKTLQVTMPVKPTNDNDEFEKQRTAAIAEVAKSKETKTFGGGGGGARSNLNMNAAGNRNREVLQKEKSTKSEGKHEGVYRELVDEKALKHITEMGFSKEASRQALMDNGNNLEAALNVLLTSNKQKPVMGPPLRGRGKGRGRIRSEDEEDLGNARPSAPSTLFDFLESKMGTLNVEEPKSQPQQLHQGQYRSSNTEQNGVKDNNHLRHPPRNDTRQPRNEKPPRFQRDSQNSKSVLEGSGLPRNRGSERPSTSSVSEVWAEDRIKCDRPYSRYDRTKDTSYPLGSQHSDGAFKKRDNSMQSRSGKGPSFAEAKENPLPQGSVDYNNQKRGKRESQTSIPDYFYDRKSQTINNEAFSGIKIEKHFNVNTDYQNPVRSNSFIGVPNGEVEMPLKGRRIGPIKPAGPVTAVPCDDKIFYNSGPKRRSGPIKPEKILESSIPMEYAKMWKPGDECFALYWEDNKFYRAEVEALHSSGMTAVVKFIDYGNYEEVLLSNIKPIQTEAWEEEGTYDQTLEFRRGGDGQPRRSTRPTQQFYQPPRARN
UniProt Q9BUH6: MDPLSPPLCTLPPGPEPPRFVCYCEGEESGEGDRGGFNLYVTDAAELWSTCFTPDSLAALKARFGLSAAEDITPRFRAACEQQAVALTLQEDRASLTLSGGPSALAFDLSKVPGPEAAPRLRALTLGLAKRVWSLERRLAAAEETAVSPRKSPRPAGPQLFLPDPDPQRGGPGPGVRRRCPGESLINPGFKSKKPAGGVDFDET
UniProt P35250: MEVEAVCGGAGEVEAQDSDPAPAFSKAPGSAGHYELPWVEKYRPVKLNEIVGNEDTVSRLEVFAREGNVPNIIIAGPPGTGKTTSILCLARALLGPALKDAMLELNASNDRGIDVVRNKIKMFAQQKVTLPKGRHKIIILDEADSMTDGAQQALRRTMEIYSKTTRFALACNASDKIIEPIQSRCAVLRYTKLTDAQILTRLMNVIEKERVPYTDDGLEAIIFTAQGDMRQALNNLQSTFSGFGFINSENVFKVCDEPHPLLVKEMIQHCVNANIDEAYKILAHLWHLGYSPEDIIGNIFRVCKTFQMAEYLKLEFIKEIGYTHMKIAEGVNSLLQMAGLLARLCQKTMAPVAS

No constants are given. Whether binding was seen depends on the method and setting. In cells and extracts the contact can be indirect. These calls come from enrichment with a bait or labelling near it, and not all partners need be listed.

Experiment [1] deals with mineral dust-induced gene (mdig) protein (human (endogenous in A549, BEAS-2B, H929)) (UniProt Q8IUF8). The experiment in a line: affinity purification with mass spectrometry; IP of endogenous mdig from BEAS-2B lysate against control IgG, proteomic profiling, compared with A549.
Experiment [2] shares this target. The experiment in a line: affinity purification with mass spectrometry; IP of endogenous mdig from A549 lysate against control IgG; whole gel lanes sliced; 3 independent experiments, two laboratories with different MS/MS systems (Orbitrap Fusion, Orbitrap XL); set of 207 proteins.
Experiment [3] has the same target. The experiment in a line: affinity purification with mass spectrometry; IP of endogenous mdig with rabbit polyclonal anti-mdig antibody on Protein A/G PLUS-Agarose from A549 lysate (1% Nonidet P-40, 137 mM NaCl, 20 mM Tris-HCl pH 7.5, 4°C overnight); three Coomassie bands of about 80, 60 and 45 kDa excised, against the same positions of the control IgG lane; Orbitrap Fusion MS/MS.

RIF1 (from UniProt Q5UIP0 1-2472): the binding entry in experiment [1] and in experiment [2] was “binds” in each case. Regarding “DNA-PK (PRKDC) (from UniProt P78527 1-4128)”, the binding result in experiment [2] is recorded as “binds”. With CBX8 (from UniProt Q9HC52 1-389), the binding entry in experiment [3] was “binds”.

As for “Rho guanine nucleotide exchange factor 12 (ARHGEF12) (from UniProt Q9NZN5 1-1544)”, the binding result in experiment [1] and in experiment [2] was “binds” throughout. Consider KAT7 (from UniProt O95251 1-611), for which, in experiment [3], the binding result is listed as “binds”. For TDRD3 (from UniProt Q9H7E2 1-651), the binding entry in experiment [3] and in experiment [2] was “binds” in each case.

In the case of PAXX (from UniProt Q9BUH6 1-204), the binding entry in experiment [1] and in experiment [2] was “binds” in each case. As for RFC2 (from UniProt P35250 1-354), in experiment [2], the binding result is “binds”. In the case of “retinoblastoma-binding protein 4 (RBBP4) (from UniProt Q09028 1-425)”, the binding result in experiment [3] and in experiment [2] was “binds” throughout.

B1: CENPB (protein, UniProt P07199 1-599)
chain: MGPKRRQLTFREKSRIIQEVEENPDLRKGEIARRFNIPPSTLSTILKNKRAILASERKYGVASTCRKTNKLSPYDKLEGLLIAWFQQIRAAGLPVKGIILKEKALRIAEELGMDDFTASNGWLDRFRRRHGVVSCSGVARARARNAAPRTPAAPASPAAVPSEGSGGSTTGWRAREEQPPSVAEGYASQDVFSATETSLWYDFLPDQAAGLCGGDGRPRQATQRLSVLLCANADGSEKLPPLVAGKSAKPRAGQAGLPCDYTANSKGGVTTQALAKYLKALDTRMAAESRRVLLLAGRLAAQSLDTSGLRHVQLAFFPPGTVHPLERGVVQQVKGHYRQAMLLKAMAALEGQDPSGLQLGLTEALHFVAAAWQAVEPSDIAACFREAGFGGGPNATITTSLKSEGEEEEEEEEEEEEEEGEGEEEEEEGEEEEEEGGEGEELGEEEEVEEEGDVDSDEEEEEDEESSSEGLEAEDWAQGVVEAGGSFGAYGAQEEAQCPTLHFLEGGEDSDSDSEEEDDEEEDDEDEDDDDDEEDGDEVPVPSFGEAMAYFAMVKRYLTSFPIDDRVQSHILHLEHDLVHVTRKNHARQAGVRGLGHQS
Regarding B1, in experiment [3], the binding result is recorded as “binds”.

B2: RFC1 (protein, UniProt P35251 1-1148)
chain: MDIRKFFGVIPSGKKLVSETVKKNEKTKSDEETLKAKKGIKEIKVNSSRKEDDFKQKQPSKKKRIIYDSDSESEETLQVKNAKKPPEKLPVSSKPGKISRQDPVTYISETDEEDDFMCKKAASKSKENGRSTNSHLGTSNMKKNEENTKTKNKPLSPIKLTPTSVLDYFGTGSVQRSNKKMVASKRKELSQNTDESGLNDEAIAKQLQLDEDAELERQLHEDEEFARTLAMLDEEPKTKKARKDTEAGETFSSVQANLSKAEKHKYPHKVKTAQVSDERKSYSPRKQSKYESSKESQQHSKSSADKIGEVSSPKASSKLAIMKRKEESSYKEIEPVASKRKENAIKLKGETKTPKKTKSSPAKKESVSPEDSEKKRTNYQAYRSYLNREGPKALGSKEIPKGAENCLEGLIFVITGVLESIERDEAKSLIERYGGKVTGNVSKKTNYLVMGRDSGQSKSDKAAALGTKIIDEDGLLNLIRTMPGKKSKYEIAVETEMKKESKLERTPQKNVQGKRKISPSKKESESKKSRPTSKRDSLAKTIKKETDVFWKSLDFKEQVAEETSGDSKARNLADDSSENKVENLLWVDKYKPTSLKTIIGQQGDQSCANKLLRWLRNWQKSSSEDKKHAAKFGKFSGKDDGSSFKAALLSGPPGVGKTTTASLVCQELGYSYVELNASDTRSKSSLKAIVAESLNNTSIKGFYSNGAASSVSTKHALIMDEVDGMAGNEDRGGIQELIGLIKHTKIPIICMCNDRNHPKIRSLVHYCFDLRFQRPRVEQIKGAMMSIAFKEGLKIPPPAMNEIILGANQDIRQVLHNLSMWCARSKALTYDQAKADSHRAKKDIKMGPFDVARKVFAAGEETAHMSLVDKSDLFFHDYSIAPLFVQENYIHVKPVAAGGDMKKHLMLLSRAADSICDGDLVDSQIRSKQNWSLLPAQAIYASVLPGELMRGYMTQFPTFPSWLGKHSSTGKHDRIVQDLALHMSLRTYSSKRTVNMDYLSLLRDALVQPLTSQGVDGVQDVVALMDTYYLMKEDFENIMEISSWGGKPSPFSKLDPKVKAAFTRAYNKEAHLTPYSLQAIKASRHSTSPSLDSEYNEELNEDDSQSDEKDQDAIETDAMIKKKTKSSKPSKPEKDKEPRKGKGKSSKK
Consider B2, for which, in experiment [2], the binding result was “binds”.

B3: DDX1 (protein, UniProt Q92499 1-740)
chain: MAAFSEMGVMPEIAQAVEEMDWLLPTDIQAESIPLILGGGDVLMAAETGSGKTGAFSIPVIQIVYETLKDQQEGKKGKTTIKTGASVLNKWQMNPYDRGSAFAIGSDGLCCQSREVKEWHGCRATKGLMKGKHYYEVSCHDQGLCRVGWSTMQASLDLGTDKFGFGFGGTGKKSHNKQFDNYGEEFTMHDTIGCYLDIDKGHVKFSKNGKDLGLAFEIPPHMKNQALFPACVLKNAELKFNFGEEEFKFPPKDGFVALSKAPDGYIVKSQHSGNAQVTQTKFLPNAPKALIVEPSRELAEQTLNNIKQFKKYIDNPKLRELLIIGGVAARDQLSVLENGVDIVVGTPGRLDDLVSTGKLNLSQVRFLVLDEADGLLSQGYSDFINRMHNQIPQVTSDGKRLQVIVCSATLHSFDVKKLSEKIMHFPTWVDLKGEDSVPDTVHHVVVPVNPKTDRLWERLGKSHIRTDDVHAKDNTRPGANSPEMWSEAIKILKGEYAVRAIKEHKMDQAIIFCRTKIDCDNLEQYFIQQGGGPDKKGHQFSCVCLHGDRKPHERKQNLERFKKGDVRFLICTDVAARGIDIHGVPYVINVTLPDEKQNYVHRIGRVGRAERMGLAISLVATEKEKVWYHVCSSRGKGCYNTRLKEDGGCTIWYNEMQLLSEIEEHLNCTISQVEPDIKVPVDEFDGKVTYGQKRAAGGGSYKGHVDILAPTVQELAALEKEAQTSFLHLGYLPNQLFRTF
For B3, the binding result in experiment [2] is given as “binds”.

B4: POLD3 (protein, UniProt Q15054 1-466)
chain: MADQLYLENIDEFVTDQNKIVTYKWLSYTLGVHVNQAKQMLYDYVERKRKENSGAQLHVTYLVSGSLIQNGHSCHKVAVVREDKLEAVKSKLAVTASIHVYSIQKAMLKDSGPLFNTDYDILKSNLQNCSKFSAIQCAAAVPRAPAESSSSSKKFEQSHLHMSSETQANNELTTNGHGPPASKQVSQQPKGIMGMFASKAAAKTQETNKETKTEAKEVTNASAAGNKAPGKGNMMSNFFGKAAMNKFKVNLDSEQAVKEEKIVEQPTVSVTEPKLATPAGLKKSSKKAEPVKVLQKEKKRGKRVALSDDETKETENMRKKRRRIKLPESDSSEDEVFPDSPGAYEAESPSPPPPPSPPLEPVPKTEPEPPSVKSSSGENKRKRKRVLKSKTYLDGEGCIVTEKVYESESCTDSEEELNMKTSSVHRPPAMTVKKEPREERKGPKKGTAALGKANRQVSITGFFQRK
On to B4, for which the binding result in experiment [2] is reported as “binds”.

B5: DDX18 (protein, UniProt Q9NVP1 1-670)
chain: MSHLPMKLLRKKIEKRNLKLRQRNLKFQGASNLTLSETQNGDVSEETMGSRKVKKSKQKPMNVGLSETQNGGMSQEAVGNIKVTKSPQKSTVLTNGEAAMQSSNSESKKKKKKKRKMVNDAEPDTKKAKTENKGKSEEESAETTKETENNVEKPDNDEDESEVPSLPLGLTGAFEDTSFASLCNLVNENTLKAIKEMGFTNMTEIQHKSIRPLLEGRDLLAAAKTGSGKTLAFLIPAVELIVKLRFMPRNGTGVLILSPTRELAMQTFGVLKELMTHHVHTYGLIMGGSNRSAEAQKLGNGINIIVATPGRLLDHMQNTPGFMYKNLQCLVIDEADRILDVGFEEELKQIIKLLPTRRQTMLFSATQTRKVEDLARISLKKEPLYVGVDDDKANATVDGLEQGYVVCPSEKRFLLLFTFLKKNRKKKLMVFFSSCMSVKYHYELLNYIDLPVLAIHGKQKQNKRTTTFFQFCNADSGTLLCTDVAARGLDIPEVDWIVQYDPPDDPKEYIHRVGRTARGLNGRGHALLILRPEELGFLRYLKQSKVPLSEFDFSWSKISDIQSQLEKLIEKNYFLHKSAQEAYKSYIRAYDSHSLKQIFNVNNLNLPQVALSFGFKVPPFVDLNVNSNEGKQKKRGGGGGFGYQKTKKVEKSKIFKHISKKSSDSRQFSH
For the molecule B5, the binding result in experiment [3] is “binds”.
